Laboratory results as given in the supplement of paper PMC8326762, “A Small Molecule Inhibitor of Pex3–Pex19 Interaction Disrupts Glycosome Biogenesis and Causes Lethality in Trypanosoma brucei” (Frontiers in Cell and Developmental Biology, 2021).
Where a name gives a salt, the structure may show the parent alone. The list shows a part of the results. This is a noisy data set.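 Yeast growth was read as optical density at 600 nm. The two-hybrid strains grew without histidine, so growth needed the Pex3–Pex19 binding; a compound counted as trypanosome-selective if it cut growth of the trypanosome-pair strain by more than 65% and the human-pair strain by less than 65%.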

Key:
[1] = system: Saccharomyces cerevisiae HF7c pdr5Δ; assay: general growth inhibition of yeast HF7c pdr5Δ in -Leu -Trp medium, relative to DMSO; higher = stronger general growth inhibition; conditions: 100 µM; 24 h
[2] = system: human PEX3-PEX19 interaction (yeast two-hybrid); assay: growth inhibition of yeast two-hybrid strain reporting HsPex3-HsPex19 interaction, relative to DMSO; higher = stronger inhibition of human Pex3-Pex19 interaction / growth; conditions: 100 µM; 24 h; 3-aminotriazole 10 mM
[3] = system: T. brucei Pex3-Pex19 interaction (yeast two-hybrid); assay: growth inhibition of yeast two-hybrid strain reporting TbPex3-TbPex19 interaction, relative to DMSO; higher = stronger inhibition of T. brucei Pex3-Pex19 interaction / growth; conditions: 100 µM; 24 h

COc1ccc2c(c1)CC[C@@H]1[C@@H]2CC[C@]2(C)[C@@H](NCCCCCCN3C(=O)CCC3=O)CC[C@@H]12
general growth inhibition [1]: 18.1%
growth inhibition [2]: 28.9%
growth inhibition [3]: 46.8%

[N-]=[N+]=Nc1ccc(C(=O)CSC[C@H](NC(=O)CC[C@H](N)C(=O)O)C(=O)NCC(=O)O)cc1 [S-(p-Azidophenacyl)glutathione]
general growth inhibition [1]: 60%
growth inhibition [2]: 47.3%
growth inhibition [3]: 59.2%

CSc1nc(N)c2ncn([C@@H]3O[C@H](COP(=O)(O)OP(=O)(O)OP(=O)(O)O)[C@H](O)C3O)c2n1 (stereo not given in full) [2-Methylthioadenosine triphosphate tetrasodium]
general growth inhibition [1]: 24%
growth inhibition [2]: 24.8%
growth inhibition [3]: 51.5%

Oc1cc(O)cc(/C=C/c2ccc(O)c(O)c2)c1 [Piceatannol]
general growth inhibition [1]: 58.8%
growth inhibition [2]: 47.7%
growth inhibition [3]: 73.7%

CN(C)C[C@H](O)Cn1c2ccc(Br)cc2c2cc(Br)ccc21 (racemic) [Wiskostatin]
general growth inhibition [1]: 87.2%
growth inhibition [2]: 84.7%
growth inhibition [3]: 69.7%

Cc1c(OCC(F)(F)F)ccnc1C[S+]([O-])c1nc2ccccc2[nH]1 (stereo not given) [Lansoprazole]
general growth inhibition [1]: 86.1%
growth inhibition [2]: 80.9%
growth inhibition [3]: 84.2%

CCCCCCCCCCCCCCCCCCOCC(COP(=O)([O-])OCC[N+](C)(C)C)OC (stereo not given)
general growth inhibition [1]: 89.4%
growth inhibition [2]: 85.3%
growth inhibition [3]: 80.2%

COc1ccc2c(c1)c(CC(=O)O)c(C)n2Cc1ccc(Cl)cc1 [1-(4-Chlorobenzyl)-5-methoxy-2-methylindole-3-acetic acid]
general growth inhibition [1]: 8.13%
growth inhibition [2]: -9.13%
growth inhibition [3]: 12.8%

CCCN[C@H]1CCc2nc(N)sc2C1 [Pramipexole dihydrochloride]
general growth inhibition [1]: 41.4%
growth inhibition [2]: 45.8%
growth inhibition [3]: 59.9%

CN[C@H](CC(C)C)C(=O)N[C@H]1C(=O)N[C@@H](CC(N)=O)C(=O)N[C@H]2C(=O)N[C@H]3C(=O)N[C@H](C(=O)N[C@H](C(=O)O)c4cc(O)cc(O)c4-c4cc3ccc4O)[C@H](O)c3ccc(c(Cl)c3)Oc3cc2cc(c3O[C@@H]2O[C@H](CO)[C@@H](O)[C@H](O)[C@H]2O[C@H]2C[C@](C)(N)[C@H](O)[C@H](C)O2)Oc2ccc(cc2Cl)[C@H]1O [Vancomycin hydrochloride from Streptomyces orientalis]
general growth inhibition [1]: 47.8%
growth inhibition [2]: 39.1%
growth inhibition [3]: 59.6%

N[C@H](C(=O)O)[C@H](Cc1ccccc1)C(=O)O [L-Beta-threo-benzyl-aspartate]
general growth inhibition [1]: 45.8%
growth inhibition [2]: 42.5%
growth inhibition [3]: 61.1%

CN1CCN(C2=Nc3cc(Cl)ccc3Nc3ccccc32)CC1 [Clozapine]
general growth inhibition [1]: 38.7%
growth inhibition [2]: 38.8%
growth inhibition [3]: 64.6%

CC(Cc1ccc(O)c(O)c1)(NN)C(=O)O (stereo not drawn) [S-(-)-Carbidopa]
general growth inhibition [1]: 26.6%
growth inhibition [2]: 37.5%
growth inhibition [3]: 53.5%

N[C@H](C(=O)O)c1cc(O)cc(O)c1 [(S)-3,5-Dihydroxyphenylglycine]
general growth inhibition [1]: 12.5%
growth inhibition [2]: 10.2%
growth inhibition [3]: 38.4%

CCCCCCCC/C=C\CCCCCCCC(=O)NCc1ccc(O)c(OC)c1 [Olvanil]
general growth inhibition [1]: 36.5%
growth inhibition [2]: 27%
growth inhibition [3]: 60.9%

NC1(C(=O)O)CCCCC1 [1-Amino-1-cyclohexanecarboxylic acid hydrochloride]
general growth inhibition [1]: 49.9%
growth inhibition [2]: 49.9%
growth inhibition [3]: 63.6%

COC(=O)C1=C(C)NC(C)=C(C(=O)OC2CCCN(Cc3ccccc3)C2)C1c1cccc([N+](=O)[O-])c1 (stereo not given) [Benidipine hydrochloride]
general growth inhibition [1]: 23.4%
growth inhibition [2]: 22.2%
growth inhibition [3]: 38.1%

O=C1OC(=O)[C@H]2[C@@H]1[C@@H]1CC[C@H]2O1 [Norcantharidin]
general growth inhibition [1]: 34.6%
growth inhibition [2]: 39.6%
growth inhibition [3]: 63.1%

O=C1NC(=O)c2cc(Nc3ccccc3)c(Nc3ccccc3)cc21
general growth inhibition [1]: -12.1%
growth inhibition [2]: -32.6%
growth inhibition [3]: -8.67%

CN1Cc2c(N)cccc2C(c2ccccc2)C1 (stereo not given) [Nomifensine maleate]
general growth inhibition [1]: 9.67%
growth inhibition [2]: 5.72%
growth inhibition [3]: 40.3%

CN(C)CCCc1cc(C(=O)Nc2ccc(-c3ccncc3)cc2)ccc1O
general growth inhibition [1]: 34.9%
growth inhibition [2]: 39.7%
growth inhibition [3]: 56.2%

CN(Cc1cnc2nc(N)nc(N)c2n1)c1ccc(C(=O)N[C@@H](CCC(=O)O)C(=O)O)cc1 [Methotrexate hydrate]
general growth inhibition [1]: 53.7%
growth inhibition [2]: 46.6%
growth inhibition [3]: 61.8%

N#Cc1cc2nc(O)c(O)nc2cc1[N+](=O)[O-] [CNQX disodium]
general growth inhibition [1]: 39.9%
growth inhibition [2]: 37.6%
growth inhibition [3]: 59.3%

CC(=O)OC[C@H]1O[C@@H]([S-])[C@H](OC(C)=O)[C@@H](OC(C)=O)[C@@H]1OC(C)=O.CCP(CC)CC.[Au+] [Auranofin]
general growth inhibition [1]: 10.5%
growth inhibition [2]: 8.74%
growth inhibition [3]: 33.2%

Cc1nc2ccccn2c(=O)c1CCN1CCC(C(=O)c2ccc(F)cc2)CC1 [Pirenperone]
general growth inhibition [1]: 42.3%
growth inhibition [2]: 32.1%
growth inhibition [3]: 67.1%

O=c1onc2n1-c1cc(Br)ccc1OC2
general growth inhibition [1]: 47.6%
growth inhibition [2]: 29.3%
growth inhibition [3]: 53.5%

O=[N+]([O-])c1cccc2c(Br)[nH]nc12 [3-Bromo-7-nitroindazole]
general growth inhibition [1]: 55.6%
growth inhibition [2]: 48.1%
growth inhibition [3]: 48.3%

Cn1ccc2cc3c(cc21)CCN3C(=O)Nc1cccnc1
general growth inhibition [1]: 29.7%
growth inhibition [2]: 36.2%
growth inhibition [3]: 58.2%

COC(=O)C1=C(C)NC(C)=C(C(=O)OCCN(C)Cc2ccccc2)C1c1cccc([N+](=O)[O-])c1 (stereo not given) [Nicardipine hydrochloride]
general growth inhibition [1]: 39.4%
growth inhibition [2]: 33.4%
growth inhibition [3]: 51.8%

COc1cc(CNC(=O)CCCCCCC(C)C)ccc1O [Dihydrocapsaicin]
general growth inhibition [1]: 38.7%
growth inhibition [2]: 22.3%
growth inhibition [3]: 71.5%

CCN1CCCC1CNC(=O)c1cc(S(N)(=O)=O)ccc1OC (racemic) [(±)-Sulpiride]
general growth inhibition [1]: 18%
growth inhibition [2]: 12.6%
growth inhibition [3]: 37.3%

CCN(CC)CCCN(c1ccccc1)C1Cc2ccccc2C1 [Aprindine hydrochloride]
general growth inhibition [1]: 51.9%
growth inhibition [2]: 42.3%
growth inhibition [3]: 60.5%

CCCCCCCCCCCCCCC[C@H](O)[C@H](N)CO (racemic) [DL-erythro-Dihydrosphingosine]
general growth inhibition [1]: 12.3%
growth inhibition [2]: 9.61%
growth inhibition [3]: 50.8%

COc1cc2nc(N3CCN(C(=O)C4COc5ccccc5O4)CC3)nc(N)c2cc1OC (stereo not given) [Doxazosin mesylate]
general growth inhibition [1]: 7.81%
growth inhibition [2]: 4.77%
growth inhibition [3]: 45.1%

O=C(CCNNC(=O)c1ccncc1)NCc1ccccc1 [Nialamide]
general growth inhibition [1]: 47.4%
growth inhibition [2]: 53.6%
growth inhibition [3]: 53.1%

CN1CC(=O)N=C1NC(=O)Nc1cccc(Cl)c1 [Fenobam]
general growth inhibition [1]: 37.8%
growth inhibition [2]: 41.3%
growth inhibition [3]: 58.1%

O=C1CCc2cc(OCCCCc3nnnn3C3CCCCC3)ccc2N1 [Cilostazol]
general growth inhibition [1]: 25.7%
growth inhibition [2]: 21.7%
growth inhibition [3]: 50.9%

CC(C)(C)c1ccc(C(=O)CCCN2CCC(OC(c3ccccc3)c3ccccc3)CC2)cc1 [Ebastine]
general growth inhibition [1]: 86.8%
growth inhibition [2]: 82.7%
growth inhibition [3]: 80.7%

CCCCC[C@H](CC(=O)NO)C(=O)N[C@H](C(=O)N1CCC[C@H]1CO)C(C)C [Actinonin]
general growth inhibition [1]: 12.6%
growth inhibition [2]: 9.77%
growth inhibition [3]: 27.5%

CNCCc1cnc(CCC(c2ccccc2)c2ccccc2)[nH]1 [N-Methylhistaprodifen dioxalate salt]
general growth inhibition [1]: 22.1%
growth inhibition [2]: 35.1%
growth inhibition [3]: 60.8%

CN(C)CCC=C1c2ccccc2CCc2ccccc21 [Amitriptyline hydrochloride]
general growth inhibition [1]: 37.1%
growth inhibition [2]: 44.1%
growth inhibition [3]: 64.5%

OC[C@H]1O[C@H]([S-])[C@H](O)[C@@H](O)[C@@H]1O.[Au+] [Aurothioglucose]
general growth inhibition [1]: 70%
growth inhibition [2]: 48.9%
growth inhibition [3]: 53.5%

O=C1NC(=O)/C(=C\c2ccc3nccnc3c2)S1
general growth inhibition [1]: 44.7%
growth inhibition [2]: 37.3%
growth inhibition [3]: 53.1%

C=CC[C@H](N)C(=O)O [L-allylglycine]
general growth inhibition [1]: 37%
growth inhibition [2]: 35.1%
growth inhibition [3]: 50%

Cc1cc(C(C)(C)C)c(O)c(C)c1CC1=NCCN1 [Oxymetazoline hydrochloride]
general growth inhibition [1]: 49.7%
growth inhibition [2]: 46.6%
growth inhibition [3]: 65.1%

CC1=Nc2ccc(Cl)cc2S(=O)(=O)N1 [Diazoxide]
general growth inhibition [1]: 10.4%
growth inhibition [2]: 14.9%
growth inhibition [3]: 35.2%

CC(C)(C)[C@]1(O)CCN2C[C@H]3c4ccccc4CCc4cccc(c43)[C@@H]2C1 (racemic) [(±)-Butaclamol hydrochloride]
general growth inhibition [1]: 44.7%
growth inhibition [2]: 46%
growth inhibition [3]: 62.3%

O=C1c2c(O)ccc(O)c2C(=O)c2c(NCCNCCO)ccc(NCCNCCO)c21 [Mitoxantrone]
general growth inhibition [1]: 19.6%
growth inhibition [2]: -18.9%
growth inhibition [3]: -13.1%

CC(C)NCC(O)c1ccc(O)c(O)c1 (single isomer, unassigned; (-)) [(-)-Isoproterenol hydrochloride]
general growth inhibition [1]: 41.8%
growth inhibition [2]: 38.3%
growth inhibition [3]: 68.8%

CCOC(=O)[C@H](CCc1ccccc1)N[C@@H](C)C(=O)N1[C@H](C(=O)O)C[C@H]2CCCC[C@@H]21 [Trandolapril]
general growth inhibition [1]: 41.9%
growth inhibition [2]: 46.4%
growth inhibition [3]: 68.8%

CC(C)[C@H](NC(=O)OCc1ccccc1)C(=O)N[C@H](C=O)Cc1ccccc1
general growth inhibition [1]: 26.8%
growth inhibition [2]: 4.85%
growth inhibition [3]: 29.6%

CCN(CC)CC#CCOC(=O)C(O)(c1ccccc1)C1CCCCC1 (stereo not given) [Oxybutynin Chloride]
general growth inhibition [1]: 47.7%
growth inhibition [2]: 34.5%
growth inhibition [3]: 64.3%

C=CCn1c(=O)c2c(nc(-c3ccc(S(=O)(=O)O)cc3)n2C)n(C)c1=O [1-Allyl-3,7-dimethyl-8-p-sulfophenylxanthine]
general growth inhibition [1]: 12.1%
growth inhibition [2]: 7.23%
growth inhibition [3]: 36.4%

CCCCNc1ccc(C(=O)OCCN(C)C)cc1 [Tetracaine hydrochloride]
general growth inhibition [1]: 41.7%
growth inhibition [2]: 33.5%
growth inhibition [3]: 57.6%

O=C(CCSCc1ccco1)NNC(=O)N1Cc2ccccc2Oc2ccc(Cl)cc21
general growth inhibition [1]: 41.8%
growth inhibition [2]: 31.9%
growth inhibition [3]: 53.5%
